No constants are given. Whether binding was seen depends on the method and setting. A result given as binding can be weak or reduced; the word gives no strength. Sequences can lack the tags named with a protein.
B1: PORA without transit peptide, split-ubiquitin yeast two-hybrid fusion (enzyme, UniProt Q42536 70-405)
chain: QAIATSTPSVTKSSLDRKKTLRKGNVVVTGASSGLGLATAKALAETGKWHVIMACRDFLKAERAAQSAGMPKDSYTVMHLDLASLDSVRQFVDNFRRAEMPLDVLVCNAAVYQPTANQPTFTAEGFELSVGINHLGHFLLSRLLIDDLKNSDYPSKRLIIVGSITGNTNTLAGNVPPKANLGDLRGLAGGLNGLNSSAMIDGGDFVGAKAYKDSKVCNMLTMQEFHRRFHEDTGITFASLYPGCIATTGLFREHIPLFRTLFPPFQKYITKGYVSESEAGKRLAQVVADPSLTKSGVYWSWNKTSASFENQLSQEASDVEKARRVWEVSEKLVGLA
B2: PORB without transit peptide, split-ubiquitin yeast two-hybrid fusion (enzyme, UniProt P21218 67-401)
chain: QTAATSSPTVTKSVDGKKTLRKGNVVVTGASSGLGLATAKALAETGKWNVIMACRDFLKAERAAKSVGMPKDSYTVMHLDLASLDSVRQFVDNFRRTETPLDVLVCNAAVYFPTAKEPTYSAEGFELSVATNHLGHFLLARLLLDDLKKSDYPSKRLIIVGSITGNTNTLAGNVPPKANLGDLRGLAGGLNGLNSSAMIDGGDFDGAKAYKDSKVCNMLTMQEFHRRFHEETGVTFASLYPGCIASTGLFREHIPLFRALFPPFQKYITKGYVSETESGKRLAQVVSDPSLTKSGVYWSWNNASASFENQLSEEASDVEKARKVWEISEKLVGLA
B3: PORC without transit peptide, split-ubiquitin yeast two-hybrid fusion (enzyme, UniProt O48741 68-401)
chain: QTVTATPPANEASPEQKKTERKGTAVITGASSGLGLATAKALADTGKWHVIMACRNFLKAEKAARSVGMSKEDYTVMHLDLASLESVKQFVENFRRTEQPLDVLVCNAAVYQPTAKEPSFTAEGFEISVGTNHLGHFLLSRLLLDDLKKSDYPSKRMIIVGSITGNTNTLAGNVPPKANLGDLRGLASGLNGQNSSMIDGGEFDGAKAYKDSKVCNMLTMQELHRRYHEETGVTFASLYPGCIATTGLFREHIPLFRLLFPPFQKYITKGYVSEEEAGKRLAQVVSDPSLGKSGVYWSWNNNSSSFENQLSKEASDAEKAKKLWEVSEKLVGLA

These binders were tested against TTP1 without transit peptide, split-ubiquitin yeast two-hybrid fusion (Arabidopsis) (assay: two-hybrid; split-ubiquitin yeast two-hybrid; proteins without transit peptide; bait vector pDHB1MCS2, prey vector met25pXCgate; selection without histidine, uracil, leucine and tryptophan, 20 mM 3-aminotriazole, 3 d at 30 °C).

binding, binds:
B1
B2
B3

— publication PMC10967246
